From the supplement of paper PMC6445147
This is a noisy data set.

B1: human tRNA-Pro; a variant is named by its letters at N, in order (parent)
chain: GGCTCGTTGGTCTAGNGGTATGATTCTCGCTTAGGGTGCGAGAGGTCCCGGGTTCNNATCCCGGACGAGCCC

Variants of: B1
Test: tRNA 3' processing efficiency (processed reads / all reads, maximum-likelihood estimate) (fraction); higher = more efficient 3' processing
Conditions: HEK293T; construct: no Pol-II promoter ((-)CMV library)

Variant | tRNA 3' processing efficiency
GGA T8G A58G T59G | 0.4
GAA C3T T59C | 0.25
GAG A14G G15A T19A A58G | 0.17
ATA A58G T59G | 0.25
CTA A14C G15C A58G | 0.25
GAA T8G A14G G15T A20T A33T A58C | 0.57
ATA T19A A20G A58G | 0.2
GAA A33G A58T | 0.42
AGA C55G T59C | 0.29
AAA T8G T19G A33G A58G | 0.57
GAA A20G T53A A58G T59A | 0.25
GAA T8C T19A A58T T59G | 0.2
GTA G15A G18T T19A T54A | 0.5
GAG C49T | 0.62
GAT A14C T59A | 0.33
TAA T19A A20T C55T | 0.25
AGA A20G C55T | 0.25
GAT T19A C28T T59G | 0.25
GTA A14T G15T G18T | 0.4
CGA T53A C55T | 0.5
GAA T8G G18A A20C A58T | 0.25

Variant | tRNA 3' processing efficiency
GGG A20T T53G | 0.4
GAA G17C A20G A58G T59G | 0.2
TGT G17T T59G | 0.25
GTA T8A G15A G17C A20G T59C | 0.5
TAC A14T G15C | 0.5
CTT C3T A14C | 0.25
GTA T8A G15T G17T A58G | 0.62
GAA A20G A43T T54A | 0.5
GGA G15C T53C | 0.33
GAA G9T G15C A58G T59G | 0.25
GTA T19A A33G | 0.4
ACA A14G G18T T19C A58G | 0.25
GTC G36T | 0.67
GAT G9T G15T G18T T19C | 0.25
GAA T8G G17C A58G C60T | 0.43
CAA T19G T53A T59G | 0.3
GAG G17A G18A T54A | 0.44
GAA G50C | 0.23
GCA T8G G9A G17A T59A | 0.25
GGA G17T T19A T54A | 0.73
GAA G9A G51A A58T | 0.25

Variant | tRNA 3' processing efficiency
GAA T19A T54C A58G | 0.25
CAG G15C G18A | 0.43
AAA A14T T19A T53A | 0.13
GAA T8G G15A G18C T19C A58T | 0.17
CAT T59C C70T | 0.4
GTA T53A A58G T59G | 0.4
GTT G15T G18A | 0.67
AGA G17A T54A | 0.62
CTA T8C G15A T19A | 0.25
GAA C39T T59C | 0.25
ATA T19C A58C | 0.7
GAA G51T T59G | 0.2
TTA C70T | 0.4
TGA A14C G18C A58T | 0.25
GAA A14G G63A | 0.14
CAC T8G A58G T59G | 0.4
CAG A20G T53G | 0.4
CTA A58G T59G | 0.52
GTA G9T A14G G15T T19A | 0.25
CTA T19G A58G | 0.5
CAA T8G G15C A58C | 0.43

Variant | tRNA 3' processing efficiency
ATG T54A | 0.69
TGA G15T T53G T59A | 0.33
GAC A14C T19A G34A | 0.2
GTA T8G A14G G15T | 0.83
CTG A14G T59C | 0.08
ATA T19C A58T | 0.2
GGG G9A A20T | 0.29
AGA G9T A14C T19G A58G | 0.4
GAA G15A A20T G40A | 0.4
GTA A14T G45T | 0.4
TTC A20G T59G | 0.25
GCG T59C | 0.56
GAA A14T T53A A58G T59A | 0.56
ATA A14G A58C | 0.45
GAC G15C T59G | 0.5
CCA A14C G51A | 0.15
TAT G9A T19G | 0.25
GGA G9A T53G T59A | 0.57
TGT A20T C55T | 0.38
GAA T8C A14C T53G A58T T59G | 0.56

4 entries from above in a different format:
ATA T19C A58T
  tRNA 3' processing efficiency: 0.2
GGG G9A A20T
  tRNA 3' processing efficiency: 0.29
AGA G9T A14C T19G A58G
  tRNA 3' processing efficiency: 0.4
GAA G15A A20T G40A
  tRNA 3' processing efficiency: 0.4
